{"source": "PubChem BioAssay AID1259405 (NCATS, 2018)", "assay": "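Silenced genes that increase secreted GFP made by CHO cells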 (primary screen)", "cell system": "Chinese hamster CHO-K1 ovary cells with stable secreted eGFP expression", "reagents": "single siRNA against mouse genes, 0.8 pmol siRNA per well (2 µl of 400 nM stock)", "time to read-out": "3 days", "read-out": "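Per-well intracellular GFP measured by laser scanning cytometry, plus viability from ATP luminescence, each relative to plate median of non-targeting control wells, in %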", "scale": "GFP, % of control: higher = more GFP per well, higher productivity; viability (ATP), % of control: higher = more viable cells (more ATP)", "active means": "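Called active when intracellular GFP, relative to negative control, is at or above 120%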", "note": "This is an unselected part of about 50,000 deposited reagents. In the full data, about 4,000 (8%) got an active call. 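Mouse siRNA library applied to hamster cells; one well for each siRNA.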 Reagents against one gene are numbered here. Reagent sequences are not shown."}
{"gene": "Gatd3a (glutamine amidotransferase like class 1 domain containing 3A)", "siRNA no.": 1, "GFP, % of control": 91.5, "viability (ATP), % of control": 98.9, "activity call": "inactive"}
{"gene": "Gatd3a (glutamine amidotransferase like class 1 domain containing 3A)", "siRNA no.": 2, "GFP, % of control": 75.6, "viability (ATP), % of control": 70, "activity call": "inactive"}
{"gene": "Gatd3a (glutamine amidotransferase like class 1 domain containing 3A)", "siRNA no.": 3, "GFP, % of control": 99.8, "viability (ATP), % of control": 101, "activity call": "inactive"}
{"gene": "Nmnat3 (nicotinamide nucleotide adenylyltransferase 3)", "siRNA no.": 1, "GFP, % of control": 102, "viability (ATP), % of control": 105, "activity call": "inactive"}
{"gene": "Nmnat3 (nicotinamide nucleotide adenylyltransferase 3)", "siRNA no.": 2, "GFP, % of control": 101, "viability (ATP), % of control": 81, "activity call": "inactive"}
{"gene": "Nmnat3 (nicotinamide nucleotide adenylyltransferase 3)", "siRNA no.": 3, "GFP, % of control": 88.2, "viability (ATP), % of control": 104, "activity call": "inactive"}
{"gene": "Nyap2", "siRNA no.": 1, "GFP, % of control": 63.4, "viability (ATP), % of control": 38.4, "activity call": "inactive"}
{"gene": "Nyap2", "siRNA no.": 2, "GFP, % of control": 51.3, "viability (ATP), % of control": 74, "activity call": "inactive"}
{"gene": "Nyap2", "siRNA no.": 3, "GFP, % of control": 57.3, "viability (ATP), % of control": 73.2, "activity call": "inactive"}
{"gene": "Sec61a1 (SEC61 translocon subunit alpha 1)", "siRNA no.": 1, "GFP, % of control": 95.9, "viability (ATP), % of control": 66.6, "activity call": "inactive"}
{"gene": "Sec61a1 (SEC61 translocon subunit alpha 1)", "siRNA no.": 2, "GFP, % of control": 30.3, "viability (ATP), % of control": 54.3, "activity call": "inactive"}
{"gene": "Sec61a1 (SEC61 translocon subunit alpha 1)", "siRNA no.": 3, "GFP, % of control": 64.1, "viability (ATP), % of control": 82, "activity call": "inactive"}
{"gene": "Masp1 (MBL associated serine protease 1)", "siRNA no.": 1, "GFP, % of control": 58, "viability (ATP), % of control": 102, "activity call": "inactive"}
{"gene": "Masp1 (MBL associated serine protease 1)", "siRNA no.": 2, "GFP, % of control": 104, "viability (ATP), % of control": 60.6, "activity call": "inactive"}
{"gene": "Masp1 (MBL associated serine protease 1)", "siRNA no.": 3, "GFP, % of control": 75.8, "viability (ATP), % of control": 88.9, "activity call": "inactive"}
{"gene": "Amigo3 (adhesion molecule with Ig like domain 3)", "siRNA no.": 1, "GFP, % of control": 95.2, "viability (ATP), % of control": 54.8, "activity call": "inactive"}
{"gene": "Amigo3 (adhesion molecule with Ig like domain 3)", "siRNA no.": 2, "GFP, % of control": 64.8, "viability (ATP), % of control": 69.8, "activity call": "inactive"}
{"gene": "Amigo3 (adhesion molecule with Ig like domain 3)", "siRNA no.": 3, "GFP, % of control": 0, "viability (ATP), % of control": 116, "activity call": "inactive"}
{"gene": "Ier5 (immediate early response 5)", "siRNA no.": 1, "GFP, % of control": 55.4, "viability (ATP), % of control": 56.6, "activity call": "inactive"}
{"gene": "Ier5 (immediate early response 5)", "siRNA no.": 2, "GFP, % of control": 90.6, "viability (ATP), % of control": 65.3, "activity call": "inactive"}
{"gene": "Ier5 (immediate early response 5)", "siRNA no.": 3, "GFP, % of control": 71.4, "viability (ATP), % of control": 66.6, "activity call": "inactive"}
{"gene": "Ctps2 (cytidine 5'-triphosphate synthase 2)", "siRNA no.": 1, "GFP, % of control": 52.2, "viability (ATP), % of control": 93.6, "activity call": "inactive"}
{"gene": "Ctps2 (cytidine 5'-triphosphate synthase 2)", "siRNA no.": 2, "GFP, % of control": 59.6, "viability (ATP), % of control": 85.8, "activity call": "inactive"}
{"gene": "Ctps2 (cytidine 5'-triphosphate synthase 2)", "siRNA no.": 3, "GFP, % of control": 38.3, "viability (ATP), % of control": 52.9, "activity call": "inactive"}
{"gene": "Casr (calcium-sensing receptor)", "siRNA no.": 1, "GFP, % of control": 61.5, "viability (ATP), % of control": 56.5, "activity call": "inactive"}
{"gene": "Casr (calcium-sensing receptor)", "siRNA no.": 2, "GFP, % of control": 81.9, "viability (ATP), % of control": 83.7, "activity call": "inactive"}
{"gene": "Casr (calcium-sensing receptor)", "siRNA no.": 3, "GFP, % of control": 46.4, "viability (ATP), % of control": 71.8, "activity call": "inactive"}
{"gene": "Osmr (oncostatin M receptor)", "siRNA no.": 1, "GFP, % of control": 104, "viability (ATP), % of control": 101, "activity call": "inactive"}
{"gene": "Osmr (oncostatin M receptor)", "siRNA no.": 2, "GFP, % of control": 49.3, "viability (ATP), % of control": 73.9, "activity call": "inactive"}
{"gene": "Osmr (oncostatin M receptor)", "siRNA no.": 3, "GFP, % of control": 120, "viability (ATP), % of control": 53.4, "activity call": "inactive"}
{"gene": "Rhox9 (reproductive homeobox 9)", "siRNA no.": 1, "GFP, % of control": 113, "viability (ATP), % of control": 129, "activity call": "inactive"}
{"gene": "Rhox9 (reproductive homeobox 9)", "siRNA no.": 2, "GFP, % of control": 74.2, "viability (ATP), % of control": 69.1, "activity call": "inactive"}
{"gene": "Rhox9 (reproductive homeobox 9)", "siRNA no.": 3, "GFP, % of control": 67.5, "viability (ATP), % of control": 58.2, "activity call": "inactive"}
{"gene": "Foxd2 (forkhead box D2)", "siRNA no.": 1, "GFP, % of control": 65, "viability (ATP), % of control": 83.6, "activity call": "inactive"}
{"gene": "Foxd2 (forkhead box D2)", "siRNA no.": 2, "GFP, % of control": 77.6, "viability (ATP), % of control": 78.8, "activity call": "inactive"}
{"gene": "Lrig1 (leucine-rich repeats and immunoglobulin-like domains 1)", "siRNA no.": 1, "GFP, % of control": 86.3, "viability (ATP), % of control": 84.3, "activity call": "inactive"}
{"gene": "Lrig1 (leucine-rich repeats and immunoglobulin-like domains 1)", "siRNA no.": 2, "GFP, % of control": 78.1, "viability (ATP), % of control": 58.7, "activity call": "inactive"}
{"gene": "Lrig1 (leucine-rich repeats and immunoglobulin-like domains 1)", "siRNA no.": 3, "GFP, % of control": 95.8, "viability (ATP), % of control": 91.7, "activity call": "inactive"}
{"gene": "Vmn1r14 (vomeronasal 1 receptor 14)", "siRNA no.": 1, "GFP, % of control": 34.2, "viability (ATP), % of control": 42.6, "activity call": "inactive"}
{"gene": "Vmn1r14 (vomeronasal 1 receptor 14)", "siRNA no.": 2, "GFP, % of control": 108, "viability (ATP), % of control": 69.6, "activity call": "inactive"}
{"gene": "Vmn1r14 (vomeronasal 1 receptor 14)", "siRNA no.": 3, "GFP, % of control": 70.2, "viability (ATP), % of control": 85.9, "activity call": "inactive"}
{"gene": "Eva1a (eva-1 homolog A, regulator of programmed cell death)", "siRNA no.": 1, "GFP, % of control": 33.1, "viability (ATP), % of control": 60.3, "activity call": "inactive"}
{"gene": "Eva1a (eva-1 homolog A, regulator of programmed cell death)", "siRNA no.": 2, "GFP, % of control": 67.2, "viability (ATP), % of control": 98.5, "activity call": "inactive"}
{"gene": "Eva1a (eva-1 homolog A, regulator of programmed cell death)", "siRNA no.": 3, "GFP, % of control": 259, "viability (ATP), % of control": 165, "activity call": "active"}
{"gene": "Eva1a (eva-1 homolog A, regulator of programmed cell death)", "siRNA no.": 4, "GFP, % of control": 223, "viability (ATP), % of control": 91.1, "activity call": "active"}
{"gene": "Eva1a (eva-1 homolog A, regulator of programmed cell death)", "siRNA no.": 5, "GFP, % of control": 80.2, "viability (ATP), % of control": 79.9, "activity call": "inactive"}
{"gene": "Eva1a (eva-1 homolog A, regulator of programmed cell death)", "siRNA no.": 6, "GFP, % of control": 78.4, "viability (ATP), % of control": 102, "activity call": "inactive"}
{"gene": "Cdc37l1 (cell division cycle 37-like 1)", "siRNA no.": 1, "GFP, % of control": 149, "viability (ATP), % of control": 76.7, "activity call": "active"}
{"gene": "Cdc37l1 (cell division cycle 37-like 1)", "siRNA no.": 2, "GFP, % of control": 26, "viability (ATP), % of control": 22.4, "activity call": "inactive"}
{"gene": "Cdc37l1 (cell division cycle 37-like 1)", "siRNA no.": 3, "GFP, % of control": 57.6, "viability (ATP), % of control": 62, "activity call": "inactive"}
{"gene": "Ncf1 (neutrophil cytosolic factor 1)", "siRNA no.": 1, "GFP, % of control": 97.9, "viability (ATP), % of control": 89.1, "activity call": "inactive"}
{"gene": "Ncf1 (neutrophil cytosolic factor 1)", "siRNA no.": 2, "GFP, % of control": 82.2, "viability (ATP), % of control": 90.5, "activity call": "inactive"}
{"gene": "Ncf1 (neutrophil cytosolic factor 1)", "siRNA no.": 3, "GFP, % of control": 48.4, "viability (ATP), % of control": 60.2, "activity call": "inactive"}
